# Laboratory results taken from PubChem BioAssay AID540256 (National Center for Advancing Translational Sciences (NCATS), 2011).
# “And” between values parts separate entries of the source, which are not always exact repeats. Identical values can stand only once. Among all 300,000 compounds or so, about 3,700 (1.2%) were called active. Inconclusive means that the source gave no clear call. Such entries were picked first, then a sample of the others. Calls come from the whole dose curve; tested in HEK293 cells. A potency beside an inconclusive call is a rough fit, not a confirmed value.
# Assay: qHTS for Inhibitors of binding or entry into cells for Lassa Virus; note: nearly all actives have a fitted effect of over 50% in size
# Conditions: Lassa virus pseudotype entry inhibition, cell reporter; series mostly up to 37.9 µM
# Potency is the fitted concentration of half-maximal effect.
row,Structure (SMILES),Potency
1,CC(=O)CCN1C(=O)NC2(CCCc3ccccc32)C1=O (centres undefined),"inconclusive: 10 µM [activator, partial curve, poor fit]"
2,Cc1cccc(NC(=O)COC(=O)CCCC2=NS(=O)(=O)c3ccccc3N2)c1,"inconclusive: 10 µM [activator, partial curve, poor fit]"
3,COc1ccc(N(C(=O)CNC(=O)c2ccco2)C(C(=O)NC2CCCC2)c2ccncc2)cc1 (centres undefined),"inconclusive: 3.55 µM [inhibitor, partial curve, poor fit]"
4,OCC1CCCC(n2cnc3c(=S)nc[nH]c32)O1 (centres undefined),"inconclusive: 11.2 µM [activator, single point]"
5,O=C(Nc1ccc(S(=O)(=O)N2CCCCC2c2cccnc2)cc1)c1ccc(Br)cc1 (centres undefined),"inconclusive: 22.4 µM [inhibitor, single point]"
6,CCc1nc(N)c(C#N)c(-c2ccccc2OC)c1C,"inconclusive: 35.5 µM [inhibitor, single point]"
7,CCOc1ccccc1N(CC(=O)NCCc1ccc(OC)c(OC)c1)S(=O)(=O)c1ccccc1,"inconclusive: 6.31 µM [inhibitor, full curve, poor fit]"
8,O=C(Cn1ccc2cc(S(=O)(=O)N3CCCCC3)ccc21)NCc1ccccc1F,"inconclusive: 3.55 µM [inhibitor, partial curve, poor fit]"
9,Cc1cccc(NC(=O)c2c(C)cc(C)nc2SCC(=O)c2ccccc2)c1,inactive
10,CNc1nc(C)nc(-n2nc(C)cc2C)n1,"inconclusive: 12.6 µM [activator, single point]"
11,O=C(CCC1CCCN(C(=O)c2ccc3[nH]ccc3c2)C1)N1CCN(c2ccccn2)CC1 (centres undefined),"inconclusive: 6.31 µM [inhibitor, partial curve, poor fit]"
12,COc1ccccc1OCc1ccc(C(=O)NC2CCCCC2)o1,"inconclusive: 8.91 µM [inhibitor, partial curve, poor fit]"
13,COc1ccc(S(=O)(=O)c2cn(C)c3ccc(C)cc3c2=O)cc1,"inconclusive: 1.58 µM [inhibitor, partial curve, poor fit]"
14,O=C(c1ccco1)N1CCN(CC(O)Cn2c3ccccc3c3ccccc32)CC1 (centres undefined),"inconclusive: 15.8 µM [inhibitor, partial curve, poor fit]"
15,O=c1cc(-c2cccc([N+](=O)[O-])c2)[nH][nH]1,inactive
16,CCCCCc1c(C)c(C#N)c2nc3ccccc3n2c1-n1ccnc1C,inactive
17,CS(=O)(=O)NCc1nnc(SCc2c(F)cccc2Cl)o1,"inconclusive: 35.5 µM [inhibitor, single point]"
18,CN1CCN(/N=C/c2ccc(N(c3ccccc3)c3ccccc3)cc2)CC1,active: 0.631 µM
19,COc1ccc(CNC2CCCCC2C)c(OC)c1 (centres undefined),inactive
20,COc1ccc(-c2c(NC(=O)C(C)C)n(C)c3ccccc3c2=O)cc1,"inconclusive: 0.116 µM [activator, full curve, poor fit]"
21,N#CC(C#N)=NNc1ccc([N+](=O)[O-])cc1,"inconclusive: 35.5 µM [inhibitor, single point]"
22,COC(=O)C1CCN(C(=O)/C=C/c2ccc(OC)cc2)CC1,"inconclusive: 2.82 µM [activator, partial curve, poor fit]"

row,Structure (SMILES),Potency
1,C=CCn1c(N2CCCCCC2)nc2c1c(=O)n(C)c(=O)n2C,"inconclusive: 1.46 µM [inhibitor, full curve, poor fit]"
2,CSc1cccc(NC(=O)c2cccc(N3CCCS3(=O)=O)c2)c1,inactive
3,CC(CN(C)Cc1ccccc1)OC(=O)c1ccccc1F (centres undefined),inactive
4,COc1ccc(NC(=O)CSc2ccc3nc(-c4ccccc4)cn3n2)c(OC)c1,"inconclusive: 11.2 µM [inhibitor, single point]"
5,CCc1ccc(NC(=O)CCn2c(=O)c3cccn3c3ccccc32)cc1,"inactive and inconclusive: 35.5 µM [inhibitor, single point]"
6,O=C(c1ccco1)N1CCCC(N2CCN(c3cccc(C(F)(F)F)c3)CC2)C1 (centres undefined),"inconclusive: 11.2 µM [inhibitor, partial curve, poor fit]"
7,CC(NC(=O)c1noc2c1CCCC2)c1ccccc1 (centres undefined),inactive
8,O=S(=O)(c1ccc(=S)[nH]c1)N1CCCC1,"inconclusive: 35.5 µM [activator, single point]"
9,CCOC(=O)c1c(O)c2ccccc2n(C)c1=O,"inconclusive: 35.5 µM [activator, single point]"
10,CC(C)(C)c1ccc(Oc2ccc(NC(=O)C3CC=CCC3C(=O)O)cc2)cc1 (centres undefined),"inconclusive: 35.5 µM [inhibitor, single point]"
11,C=C(C)COc1ccc(-c2nc(N)nc(C)c2-c2ccc(OC)cc2)c(O)c1,"inconclusive: 29.1 µM [inhibitor, single point]"
12,CC(C)c1ccc(NC(=O)c2ccc(F)c(S(=O)(=O)N3CCc4ccccc43)c2)cc1,"inconclusive: 3.55 µM [inhibitor, single point]"
13,CCC1=Nc2cc(C(=O)NC3CCC(C)CC3)ccc2Sc2ccc(C)cc21 (centres undefined),"inconclusive: 1.58 µM [inhibitor, full curve, poor fit]"
14,CCC1CN(C(=O)N2CCC(C(=O)NCc3cccc(OC)c3OC)CC2)c2cc(C)ccc2O1 (centres undefined),"inconclusive: 10 µM [inhibitor, partial curve, poor fit] and inconclusive: 3.98 µM [inhibitor, full curve]"
15,CCN1CCN(CCNC(=O)c2ccc3c(c2)N(Cc2cccc(Cl)c2)C(=O)c2ccccc2S3=O)CC1 (centres undefined),"inconclusive: 35.5 µM [inhibitor, single point]"
16,O=C(CCCc1ccccc1)NCc1cccnc1,"inconclusive: 0.164 µM [activator, single point]"
17,O=C(Nc1cccc(Cl)c1)Nc1cc(S(=O)(=O)N2CCOCC2)ccc1N1CCCC1,"inconclusive: 11.2 µM [inhibitor, partial curve, poor fit]"
18,Cc1ccc2nc(NC(=O)COC(=O)c3ccco3)sc2c1,"inconclusive: 6.51 µM [activator, single point]"
19,CCN(CC)S(=O)(=O)c1ccc(OC(C)C)c(NC(=O)C2=COCCO2)c1,"inconclusive: 35.5 µM [inhibitor, single point]"
20,O=C(N/N=C/c1ccccn1)c1c[nH]c2ccccc12,"inconclusive: 20 µM [inhibitor, single point]"
21,CC1CCCCN1CCCNC(=O)c1ccc2c(=O)n(CCc3ccccc3)c(=O)[nH]c2c1 (centres undefined),"inconclusive: 32.6 µM [inhibitor, single point]"
22,Cc1ccc(NC(=O)CC(=O)c2ccc([N+](=O)[O-])cc2)cc1S(=O)(=O)Nc1cccc(Cl)c1,"inconclusive: 25.9 µM [inhibitor, single point]"

row,Structure (SMILES),Potency
1,COc1ccc(N2CCN(C(=O)c3ccc(CNS(=O)(=O)c4cccc(OC)c4)cc3)CC2)cc1,"inconclusive: 8.91 µM [inhibitor, partial curve, poor fit]"
2,CCOC(=O)c1c(/N=C/N(C)C)sc2c1CCC2,inactive
3,CN(C)S(=O)(=O)c1cccc(NC(=O)c2ccc(OC(F)(F)F)cc2)c1,"inconclusive: 25.1 µM [inhibitor, single point]"
4,Cc1ccc(/C=C2\SC(=S)N(CCCC(=O)Nc3ccc(O)cc3)C2=O)cc1,"inconclusive: 5.01 µM [inhibitor, full curve]"
5,O=C(NCCc1ccccc1)c1cnc2n(c1=O)CCS2,"inconclusive: 4.47 µM [activator, single point]"
6,O=C(Cc1cccs1)N/N=C/C=C/c1ccccc1[N+](=O)[O-],"inconclusive: 1.58 µM [inhibitor, full curve, poor fit]"
7,COc1ccc(CCC(=O)OCc2csc(CC(=O)Nc3ccccc3C)n2)cc1,"inconclusive: 1.26 µM [inhibitor, single point]"
8,CCOC(=O)N1CCN(C(=O)CN(Cc2ccc(Cl)cc2)S(=O)(=O)c2ccccc2)CC1,"inconclusive: 2.31 µM [inhibitor, full curve, poor fit]"
9,COc1ccc(OC)c(CN2CCN(C(=O)[C@@H](NC(=O)c3cccc(C)c3)C(C)C)CC2)c1,"inconclusive: 14.1 µM [inhibitor, partial curve, poor fit]"
10,COc1ccccc1Oc1ccc(-c2cnc3ccccc3n2)cc1[N+](=O)[O-],"inconclusive: 14.1 µM [inhibitor, single point]"
11,CSc1ccccc1C(=O)N1CCCC(CCC(=O)NCc2ccc(F)c(F)c2)C1 (centres undefined),inactive
12,O=C(Cn1c(-c2ccco2)nc2ccccc21)N1CCCCC1,inactive
13,Cc1ccccc1N(CC(=O)N/N=C/c1ccc(N(C)C)cc1)C(=O)c1ccccc1,"inconclusive: 29.1 µM [inhibitor, single point]"
14,COC(=O)c1c(C#N)c(N)nc2c1CCC2,inactive
15,Cc1cc2c(cc1NC(=O)c1ccccc1C)n(C)c(=O)c(=O)n2C,inactive
16,Cc1c(C(=O)N2CCCCC2)c(S(=O)(=O)Nc2cccc(Br)c2)c(C)n1C,"inconclusive: 35.5 µM [inhibitor, single point]"
17,O=C(N/N=C/c1cc(Cl)ccc1O)c1cccnc1,"inconclusive: 1.26 µM [inhibitor, full curve, poor fit]"
18,COc1ccccc1N1CCN(C(=O)C2CCN(S(=O)(=O)Cc3ccccc3)CC2)CC1,inactive
19,Cc1ccc2[nH]c(C)c(/C=C/c3cc[n+](C)cc3)c2c1,active: 3.16 µM
20,COc1ccc(NC(=O)Nc2cccc(NC(C)=O)c2)c(OC)c1,inactive
